Test results: PMC9307837
These are yes or no findings as the source states them, for the method shown. In cells and extracts the contact can be indirect. A result given as binding can be weak or reduced; the word gives no strength.

Target: T1, Calcium/calmodulin-dependent protein kinase IV (CaMK4), human (human (endogenous in HaCaT)) (UniProt Q16566)
T1 sequence: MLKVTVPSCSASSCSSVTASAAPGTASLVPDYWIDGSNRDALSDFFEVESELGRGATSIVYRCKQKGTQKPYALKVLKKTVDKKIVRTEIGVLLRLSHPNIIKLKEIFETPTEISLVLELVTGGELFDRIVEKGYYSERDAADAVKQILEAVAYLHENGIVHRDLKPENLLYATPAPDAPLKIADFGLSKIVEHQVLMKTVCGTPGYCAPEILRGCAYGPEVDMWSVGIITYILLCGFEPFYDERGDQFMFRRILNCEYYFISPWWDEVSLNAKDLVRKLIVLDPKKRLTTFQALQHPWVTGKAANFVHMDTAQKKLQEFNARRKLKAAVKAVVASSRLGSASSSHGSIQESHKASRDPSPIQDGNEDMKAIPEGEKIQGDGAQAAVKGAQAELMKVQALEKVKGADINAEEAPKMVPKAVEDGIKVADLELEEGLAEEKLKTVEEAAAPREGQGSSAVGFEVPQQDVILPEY
Test: co-IP; HaCaT cell lysates incubated with CaMK4 Ab or rabbit IgG overnight at 4 °C, Protein A/G magnetic beads, western blot with AKT Ab; cells transfected with siCAMK4 or scrambled control and stimulated with TNF and IL-17A (Fig. 8 legend)

binding: binds
Substance: AKT, human (enzyme)
